Assay: Evaluation of elution rates of analgesic from a 0.5 gm composition button in phosphate buffer, HPLC-UV
Format: physicochemical
Protocol: An evaluation of elution rates was obtained by submitting the compositions under consideration to the following: […] The surface area exposed to the buffer is about 0.785 sq. cm. One cc aliquots of the buffer solution are taken over a three day period, every 2 hours during business hours of day one, then several times on each of days two and three. […] The presence of lidocaine in the supernatant over the three day period is evidence of the release of pain-relieving amounts of the analgesic. The same procedure was followed for measurement of the elution of bupivacaine free base and hydrochloride.

Structure (SMILES): CCN(CC)CC(=O)Nc1c(C)cccc1C [lidocaine free base, lidocaine, reference compound]
- elution of free base relative to the acid addition salt: elutes faster than the acid addition salt
- elution of free base relative to the salt (in a free base/salt mixture): elutes more rapidly
